Strings that start with PEPTIDE1 are HELM notation: dots part the residues, brackets hold end groups and non-standard residues.
Test: general procedure: Fmoc solid-phase peptide synthesis; Rink Amide
Conditions: whole synthesis; for final LC-MS purity / final HPLC purity: LC-MS or analytical HPLC

## PEPTIDE1{F.Q.F.K.F.K.C.[am]}$$$$V2.0
  final LC-MS purity: >95%

## PEPTIDE1{V.V.V.A.A.A.E.E.E.[am]}$$$$V2.0
  final HPLC purity: >70%

## PEPTIDE1{V.V.V.A.A.A.K.K.K.[am]}$$$$V2.0
  final HPLC purity: >95%

## PEPTIDE1{[Palm].F.Q.F.K.F.K.C.[am]}$$$$V2.0
  crude yield: 25%
  final LC-MS purity: >90%

## PEPTIDE1{[Palm].V.V.V.A.A.A.E.E.E.[am]}$$$$V2.0
  crude yield: 46%
  final HPLC purity: >90%

From paper PMC11468294 (Advanced Healthcare Materials, 2023)
